Measured values from paper PMC5366912.
These are yes or no findings as the source states them, for the method shown. In cells and extracts the contact can be indirect. Some results given as binding are weak or reduced against the parent protein; the word gives no strength.

Protein sequences, listed by entry. Tags and fused reporters are not part of them.
UniProt P35579: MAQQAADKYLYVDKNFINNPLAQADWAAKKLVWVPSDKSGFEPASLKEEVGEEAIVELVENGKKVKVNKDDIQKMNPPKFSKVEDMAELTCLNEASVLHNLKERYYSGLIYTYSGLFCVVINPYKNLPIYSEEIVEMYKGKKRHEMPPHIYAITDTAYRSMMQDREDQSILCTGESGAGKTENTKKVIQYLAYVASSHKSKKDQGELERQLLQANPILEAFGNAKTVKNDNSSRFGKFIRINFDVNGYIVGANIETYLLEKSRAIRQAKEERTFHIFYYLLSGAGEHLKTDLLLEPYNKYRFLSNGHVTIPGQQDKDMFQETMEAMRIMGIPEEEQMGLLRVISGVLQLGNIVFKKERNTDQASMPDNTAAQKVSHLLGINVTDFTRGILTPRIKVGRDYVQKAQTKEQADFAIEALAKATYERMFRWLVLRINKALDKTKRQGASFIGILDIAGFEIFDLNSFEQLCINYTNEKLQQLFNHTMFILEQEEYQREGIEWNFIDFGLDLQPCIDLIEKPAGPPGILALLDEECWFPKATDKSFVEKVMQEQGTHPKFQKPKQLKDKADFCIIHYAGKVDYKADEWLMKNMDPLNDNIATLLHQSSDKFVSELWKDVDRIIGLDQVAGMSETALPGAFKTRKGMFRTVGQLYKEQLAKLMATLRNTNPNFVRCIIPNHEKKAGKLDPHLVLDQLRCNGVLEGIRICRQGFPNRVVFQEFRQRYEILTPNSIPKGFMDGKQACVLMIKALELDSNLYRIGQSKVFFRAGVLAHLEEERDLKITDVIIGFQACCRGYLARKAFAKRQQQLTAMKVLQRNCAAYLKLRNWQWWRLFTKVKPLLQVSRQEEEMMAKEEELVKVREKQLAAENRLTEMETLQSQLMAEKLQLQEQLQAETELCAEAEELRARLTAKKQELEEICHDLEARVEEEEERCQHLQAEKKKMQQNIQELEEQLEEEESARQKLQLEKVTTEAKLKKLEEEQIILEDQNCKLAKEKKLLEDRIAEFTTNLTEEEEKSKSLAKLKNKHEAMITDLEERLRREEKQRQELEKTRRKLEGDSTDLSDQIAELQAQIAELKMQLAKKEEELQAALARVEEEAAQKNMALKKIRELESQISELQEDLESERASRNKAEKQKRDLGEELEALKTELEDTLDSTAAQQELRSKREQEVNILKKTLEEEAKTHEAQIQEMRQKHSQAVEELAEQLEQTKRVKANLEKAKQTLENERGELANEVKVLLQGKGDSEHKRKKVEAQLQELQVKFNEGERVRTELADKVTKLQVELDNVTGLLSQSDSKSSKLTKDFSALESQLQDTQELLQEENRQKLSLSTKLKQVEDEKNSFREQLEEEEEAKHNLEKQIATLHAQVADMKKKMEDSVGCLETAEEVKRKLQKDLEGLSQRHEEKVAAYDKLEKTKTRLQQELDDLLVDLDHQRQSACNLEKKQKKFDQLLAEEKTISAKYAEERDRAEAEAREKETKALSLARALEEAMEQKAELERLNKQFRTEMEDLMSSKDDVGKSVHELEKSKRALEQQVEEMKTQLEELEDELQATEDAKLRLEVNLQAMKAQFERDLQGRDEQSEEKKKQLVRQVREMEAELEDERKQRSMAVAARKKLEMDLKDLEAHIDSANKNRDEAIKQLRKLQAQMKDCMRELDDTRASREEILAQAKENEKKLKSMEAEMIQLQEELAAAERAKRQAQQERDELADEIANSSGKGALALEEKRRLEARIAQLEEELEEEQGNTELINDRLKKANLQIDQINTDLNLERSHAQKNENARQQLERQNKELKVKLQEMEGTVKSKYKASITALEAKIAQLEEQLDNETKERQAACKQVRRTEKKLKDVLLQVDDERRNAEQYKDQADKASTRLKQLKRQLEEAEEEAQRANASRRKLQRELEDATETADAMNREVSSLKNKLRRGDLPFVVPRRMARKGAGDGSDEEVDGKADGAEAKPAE

Target: T1, C9ORF135 protein (chromosome 9 open reading frame 135), isoform 1 (human (endogenous in hESCs)) (UniProt Q5VTT2)
T1 sequence: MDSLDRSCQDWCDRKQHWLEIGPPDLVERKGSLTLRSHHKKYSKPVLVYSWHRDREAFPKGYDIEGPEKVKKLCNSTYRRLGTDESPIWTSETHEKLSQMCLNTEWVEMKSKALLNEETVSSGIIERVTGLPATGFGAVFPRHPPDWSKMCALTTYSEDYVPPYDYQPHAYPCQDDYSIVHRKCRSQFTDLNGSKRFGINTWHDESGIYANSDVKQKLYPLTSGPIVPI
Test: co-IP; hESC lysate precipitated with anti-C9ORF135 (control: normal IgG), blotted with myosin IIA antibody; input 10% lysate

binding: binds
Substance: myosin-9 (MYH9, myosin-IIA) (from UniProt P35579 1-1960)
